The values below come from article PMC3454409.

Data set [1] deals with T1, GATA-2 (UniProt P23769).
T1 sequence (looked up, limits assumed): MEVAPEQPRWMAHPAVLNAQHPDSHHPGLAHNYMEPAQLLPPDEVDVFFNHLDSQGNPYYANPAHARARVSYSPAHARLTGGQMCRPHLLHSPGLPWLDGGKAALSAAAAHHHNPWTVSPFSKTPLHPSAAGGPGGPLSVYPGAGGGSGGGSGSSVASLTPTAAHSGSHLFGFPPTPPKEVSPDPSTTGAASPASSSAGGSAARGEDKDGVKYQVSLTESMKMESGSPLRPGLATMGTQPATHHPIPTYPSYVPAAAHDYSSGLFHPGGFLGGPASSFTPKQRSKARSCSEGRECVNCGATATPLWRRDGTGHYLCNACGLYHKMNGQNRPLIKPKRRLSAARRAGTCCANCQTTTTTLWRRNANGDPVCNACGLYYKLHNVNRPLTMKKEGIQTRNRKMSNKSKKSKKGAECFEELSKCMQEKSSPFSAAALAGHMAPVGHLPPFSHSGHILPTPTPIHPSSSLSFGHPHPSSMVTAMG
The experiment in a line: competition with a labelled probe. As to conditions: 100-fold molar excess unlabeled mutant vs FITC wild-type probe, did not affect binding; EMSA with 3 ug nuclear extract; pH and temperature not given (as described previously); protein in a lysate after overexpression; protein details: Myc-His vector (pcDNA(-)/Myc-His, printed Mys-His); label: none (unlabeled competitor). (In general: A gel shift assay detects complexes by their altered migration in electrophoresis.)

Data set [2] concerns the target T1, GATA-2. Description: EMSA. The conditions noted are these: K562 nuclear extract, 3 ug, band increases with GATA-2 overexpression, reduced by 100-fold unlabeled wild-type oligo; EMSA with 3 ug nuclear extract; pH and temperature not given (as described previously); protein in a lysate after overexpression; protein details: Myc-His vector (pcDNA(-)/Myc-His, printed Mys-His); label: FITC (probe), unlabeled as competitor.

The exact form of at least one protein or probe is not confirmed. Results from cells or extracts need not show a direct contact. For some assays here: A negative result means that nothing was seen under these conditions. Tags and fusion partners may be left off the protein sequences shown.

Regarding “GATTTCCTAAACGGGAATC (double strand) [HOXB4 promoter GATA mutated]”, the binding result with GATA-2 [1] is “no binding”. Turning to “GATTTCCTTATCCGGGAATC (double strand) [HOXB4 promoter GATA -160/-157 wild-type]”, in the data set with GATA-2 [2], the binding result is reported as “binds”.
